The values that follow come from paper PMC5642495, “Characterization of a novel androgen receptor (AR) coregulator RIPK1 and related chemicals that suppress AR-mediated prostate cancer growth via peptide and chemical screening” (Oncotarget, 2017).

Chains of the proteins cited; added tags and fusions are not shown. Lines headed by an entry give the natural chain unless they say otherwise; changes in a name come on top.
UniProt P10275: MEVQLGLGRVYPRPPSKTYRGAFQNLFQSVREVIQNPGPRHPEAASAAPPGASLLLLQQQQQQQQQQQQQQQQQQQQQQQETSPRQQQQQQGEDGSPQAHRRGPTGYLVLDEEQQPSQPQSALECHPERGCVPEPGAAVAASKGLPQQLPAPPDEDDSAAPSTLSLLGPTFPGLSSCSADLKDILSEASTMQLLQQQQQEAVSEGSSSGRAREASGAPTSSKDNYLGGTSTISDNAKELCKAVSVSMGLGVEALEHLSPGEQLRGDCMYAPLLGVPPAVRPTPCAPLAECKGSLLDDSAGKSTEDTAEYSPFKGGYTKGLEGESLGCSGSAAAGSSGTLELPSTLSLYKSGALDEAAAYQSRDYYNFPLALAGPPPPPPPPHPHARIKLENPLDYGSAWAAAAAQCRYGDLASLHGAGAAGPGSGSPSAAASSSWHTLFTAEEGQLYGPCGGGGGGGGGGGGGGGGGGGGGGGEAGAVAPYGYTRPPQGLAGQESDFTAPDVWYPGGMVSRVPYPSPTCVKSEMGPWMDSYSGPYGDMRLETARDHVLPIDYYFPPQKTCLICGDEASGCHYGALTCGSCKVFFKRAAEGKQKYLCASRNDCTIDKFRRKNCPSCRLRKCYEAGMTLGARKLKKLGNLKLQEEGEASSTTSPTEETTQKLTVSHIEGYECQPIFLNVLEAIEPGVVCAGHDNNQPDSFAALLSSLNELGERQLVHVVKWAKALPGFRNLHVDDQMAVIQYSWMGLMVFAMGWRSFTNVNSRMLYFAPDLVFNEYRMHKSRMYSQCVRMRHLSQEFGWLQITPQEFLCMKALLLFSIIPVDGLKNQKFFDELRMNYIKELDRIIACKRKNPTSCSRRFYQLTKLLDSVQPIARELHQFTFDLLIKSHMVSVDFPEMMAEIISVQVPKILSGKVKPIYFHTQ
UniProt Q13546: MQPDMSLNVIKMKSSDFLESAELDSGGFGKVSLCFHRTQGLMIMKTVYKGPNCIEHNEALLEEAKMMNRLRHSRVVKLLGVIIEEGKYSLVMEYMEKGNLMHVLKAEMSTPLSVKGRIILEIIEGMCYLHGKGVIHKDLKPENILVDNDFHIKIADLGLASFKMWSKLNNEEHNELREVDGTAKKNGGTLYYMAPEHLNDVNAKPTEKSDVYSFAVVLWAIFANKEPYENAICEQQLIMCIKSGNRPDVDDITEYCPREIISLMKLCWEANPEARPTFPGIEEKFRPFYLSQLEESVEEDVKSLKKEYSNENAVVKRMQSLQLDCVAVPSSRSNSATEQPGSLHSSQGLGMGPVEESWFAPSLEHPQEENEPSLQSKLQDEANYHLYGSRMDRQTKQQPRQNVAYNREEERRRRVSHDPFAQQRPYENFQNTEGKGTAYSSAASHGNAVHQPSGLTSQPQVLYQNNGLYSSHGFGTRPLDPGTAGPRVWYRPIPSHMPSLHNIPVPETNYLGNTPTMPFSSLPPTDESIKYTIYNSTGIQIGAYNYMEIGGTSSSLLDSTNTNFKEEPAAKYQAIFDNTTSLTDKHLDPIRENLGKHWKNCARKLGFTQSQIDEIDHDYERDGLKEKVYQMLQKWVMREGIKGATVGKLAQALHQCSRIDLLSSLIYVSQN

Results are given in words; binding and its absence hold for the method and conditions named. Binding seen in cells or lysates may run through a third protein. Binding can be weak; no strength is given.

Assay [1] deals with AR N-terminal region (GST pull-down assay) (human) (UniProt P10275). Kind of assay: pull-down; GST pull-down; which partner carried GST and the conditions are not told (refs 8, 16).
Assay [2] addresses AR DBD-LBD, C-terminal region of AR (GST pull-down assay) (human) (UniProt P10275). The description is as above.

As to “RIPK1 (as used in the GST pull-down assay) (from UniProt Q13546 1-671) (enzyme)”, the binding result in assay [1] and in assay [2] was “binds” throughout.
